Reference: US20250304620A1, “ANTIMICROBIAL PEPTIDE AND APPLICATION THEREOF” (priority 2023, published 2025)
At least one structure is not confirmed: it was looked up by name or label, or the drawing left a doubt.

Assays:
[1] = system: Escherichia coli ATCC 25922; experiment: Oral formulations on mice with systemic bacterial infection; assay type: in vivo, ICR mice; conditions: gavage, three times a day for 7 days, observed 14 d
Description: Both female and male ICR mice were used in the test, half of the female and male mice were taken and randomly assigned into groups, with 10 mice in each group, and kept in separate cages. The mice were divided into a blank control group, a negative control group, a positive control Levofloxacin group, and AMPs LV-1 to LV-30 groups. An Escherichia coli ATCC 25922 bacterial suspension was prepared, a concentration of the suspension was adjusted 1×10^7 CFU/mL for subsequent use. Except for the blank control group, all other mice were injected with the Escherichia coli suspension (0.2 mL, 1×10^7 CFU/mL), into abdominal cavity of the mice, to establish a model. After the model was successfully established, the mice were given drug immediately according to their body weights. Except for the blank control group and the negative control group, the mice in all other groups were gavaged with different compounds, three times a day for 7 consecutive days. The mice were then observed for 14 d. The death of mice in each group was observed, and survival time of the mice was recorded. Results of the effect of the oral formulations of AMPs LV-1 to LV-30 on the survival time of mice infected with Escherichia coli are shown in Table 11.

[2] = system: Pseudomonas aeruginosa ATCC 27853; experiment: Injectable formulations on mice infected with peritonitis; assay type: in vivo, ICR mice; conditions: tail vein, twice a day for 3 days, observed 14 d
Description: Both female and male ICR mice were used in the test, half of the female and male mice were taken and randomly assigned into groups, with 10 mice in each group, and kept in separate cages. The mice were divided into a blank control group, a negative control group, a positive control Levofloxacin group, and AMPs LV-1 to LV-30 groups. A bacterial suspension of Pseudomonas aeruginosa ATCC 27853 was prepared, a concentration of the suspension was adjusted 1×10^9 CFU/mL for subsequent use. Except for the blank control group, all other mice were injected with the bacterial suspension (0.2 mL, 1×10^9 CFU/mL), into abdominal cavity of the mice, to establish a model. After the model was successfully established, the mice were given drug immediately according to their body weights. Except for the blank control group and the negative control group, the mice in all other groups were administered the corresponding injectable formulations via tail vein, twice a day for 3 consecutive days. The mice were then observed for 14 d. The death of mice in each group was observed, and survival time of the mice was recorded. Results of the effect of the injectable formulations of AMPs LV-1 to LV-30 on the survival time of mice infected with Pseudomonas aeruginosa are shown in Table 10.

With `C[C@H]1COc2c(N3CCN(C)CC3)c(F)cc3c(=O)c(C(=O)O)cn1c23` [Levofloxacin, reference compound] as the compound, how does the “survival time of mice infected with Escherichia coli” value [1] read?
The value was “effectively prolong the survival time”.

What about the “survival time of mice infected with Pseudomonas aeruginosa” value [2] of the same compound?
Its value is “effectively prolong the survival time”.
